Article PMC5761851, “Application of a phenotypic drug discovery strategy to identify biological and chemical starting points for inhibition of TSLP production in lung epithelial cells” (PLoS ONE, 2018)
Several values for one entry are separate records, joined by “and”; a condition that tells them apart may be missing. Equal entries are not always repeated. Where two headings read alike, the source gives them in different places.

System: TSLP production in NHBE cells
Assay: TSLP HTRF assay (TSLP production in poly I:C / IL-4 stimulated NHBE cells)
Assay type: cell-based, human
Experimental: For dose response curves determinations, stocks of test compounds at a concentration of 1.33x10^-3 M in DMSO were sequentially diluted at 1:4 dilution steps before further 1/50 dilution in BEBM medium containing 1x ITS and 0.1% BSA. For the highest 4 μM concentration test compounds were resuspended in DMSO at a concentration of 2.5x10^-3 M and diluted 1/25 in BEBM medium containing 1x ITS and 0.1% BSA before adding 1 μl to the wells containing the cells.
All subsequent steps were automated using a Sciclone® G3 workstation (Perkin Elmer) with a Twister™ II robot (Perkin Elmer). […] 1 μl of test compound solution prepared at 25x concentration was added to the wells containing NHBE cells. The plates were then incubated during 90 minutes at 37°C, 5% CO2, 90% humidity before adding poly I:C (Invivogen HMW Tirl-pic-5) and human IL-4 (Peprotech 200–04) stimulus in 4 μl of BEBM medium containing 1x ITS, 0.1% BSA and 0.1% DMSO using a Multidrop™. […] Cells were then incubated for 24h in the presence of test compounds and stimulus at 37°C, 5% CO2 and 90% humidity conditions. After the 24h incubation period the plates were transferred to a CyBi®-Well platform (CyBio AG) to collect 10 μl of the supernatants which were transferred to a new plate. TSLP levels in the supernatant were determined using a homogeneous Time-Resolved Fluorescence (HTRF) assay custom developed by Cisbio. […]

IC50 (Homo sapiens, NHBE, 24 h, NHBE cells donor #1, poly I:C / IL-4, 24h, geometric mean, read-out: Inhibition of TSLP protein production (IC50, μM) (95% CI)): 0.299 µM
IC50 (individual values, donor #1, read-out: Inhibition of TSLP production in NHBE (IC50)): 0.448 µM and 0.149 µM and 0.403 µM
SMILES: C[C@@H]1CCN(C(=O)CC#N)C[C@@H]1N(C)c1ncnc2[nH]ccc12 [Tofacitinib, reference compound]
